Measured data: PubChem BioAssay AID1259308 (NCATS, 2017)
The whole screen tested about 59,000 reagents; below is a part drawn at random. Over the whole deposit, about 1,510 (2.6%) were called active. 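Calls use total luciferase alone and ignore viability, so some active siRNAs may act by altering cell number.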 The numbers tell different reagents against one gene apart. Further read-outs or replicates are left out here.

- Screen: 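Candidate targets for better recombinant protein yield in mammalian cells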 (primary screen)
- Cell system: human HEK293 embryonic kidney cells stably expressing firefly luciferase (HEK-CMV-Luc2-Hygro)
- Knock-down reagent: single siRNA against human genes, 0.8 pmol siRNA per well
- Duration: 72 h
- Measured: 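Luciferase light (ONE-Glo) measured on one replicate plate set and viability (CellTiter-Glo) on the other, scaled to a negative control siRNA, with robust z-scores and luciferase per cell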
- Reading the numbers: total luciferase, z-score and total luciferase, % of control: higher = more reporter protein produced
- Active means: 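Active when the median/MAD z-score for overall luciferase is greater than 3; a gene was taken forward for validation with new siRNAs if at least two of its three siRNAs passed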
- Calls: active = raised luciferase; inactive = no rise

no.	gene	reagent	total luciferase, z-score	total luciferase, % of control	activity call
1	PVALB	1	0.621	94.2	inactive
2	PVALB	2	0.152	84.9	inactive
3	PVALB	3	0.196	85.8	inactive
4	THAP3	1	-1.38	54.4	inactive
5	THAP3	2	0.624	94.3	inactive
6	THAP3	3	-0.95	63	inactive
7	TTBK2	1	-1.67	48.7	inactive
8	TTBK2	2	-0.394	74.1	inactive
9	TTBK2	3	-0.657	68.8	inactive
10	WDR37	1	-0.72	67.6	inactive
11	WDR37	2	-0.0755	80.4	inactive
12	WDR37	3	0.597	93.8	inactive
13	PRR23C	1	0.387	89.6	inactive
14	PRR23C	2	-0.141	79.1	inactive
15	PRR23C	3	-0.56	70.7	inactive
16	KIF22	1	0.285	87.5	inactive
17	KIF22	2	-1.42	53.7	inactive
18	KIF22	3	-0.815	65.7	inactive
19	CXCR1	1	0.245	86.8	inactive
20	CXCR1	2	-0.434	73.3	inactive
21	CXCR1	3	-0.173	78.4	inactive

Targets listed so far whose target name begins with K or k (3):
gene	reagent	total luciferase, z-score	total luciferase, % of control	activity call
KIF22	1	0.285	87.5	inactive
KIF22	2	-1.42	53.7	inactive
KIF22	3	-0.815	65.7	inactive

The listing continues.
no.	gene	reagent	total luciferase, z-score	total luciferase, % of control	activity call
22	LHX8	1	-0.362	74.7	inactive
23	LHX8	2	-0.848	65	inactive
24	LHX8	3	0.273	87.3	inactive
25	ACTBL2	1	-1.09	60.1	inactive
26	ACTBL2	2	-1.69	48.3	inactive
27	ACTBL2	3	-0.875	64.5	inactive
28	SAC3D1	1	0.0708	83.3	inactive
29	SAC3D1	2	0.284	87.5	inactive
30	SAC3D1	3	1.8	118	inactive
31	FLJ46284	1	0.503	91.9	inactive
32	FLJ46284	2	2.82	138	inactive
33	FLJ46284	3	0.135	84.6	inactive
34	SPI1	1	-1.07	60.6	inactive
35	SPI1	2	0.867	99.1	inactive
36	SPI1	3	-1.41	53.9	inactive
37	TMEFF1	1	-0.243	77	inactive
38	TMEFF1	2	-0.44	73.1	inactive
39	TMEFF1	3	0.194	85.8	inactive
